From paper PMC9421128
No constants are given. Whether binding was seen depends on the method and setting. In cells and extracts the contact can be indirect. Sequences can lack the tags named with a protein.

Tests used:
Test in all cases: co-IP
[1] = molecular target: FLAG-tagged HMPV M2-2 finer Δ3 deletion mutant Δ3-10 (human metapneumovirus strain Jpn03-1)
[2] = molecular target: FLAG-tagged HMPV M2-2 finer Δ3 deletion mutant Δ3-5 (human metapneumovirus strain Jpn03-1)
[3] = molecular target: FLAG-tagged HMPV M2-2 finer Δ3 deletion mutant Δ3-9 (human metapneumovirus strain Jpn03-1)

Measured: binding

B1: V5-tagged RIG-I CARD (V5-RIG-I CARD), expressed in HEK293T (domain or fragment, UniProt O95786 1-283)
chain: MTTEQRRSLQAFQDYIRKTLDPTYILSYMAPWFREEEVQYIQAEKNNKGPMEAATLFLKFLLELQEEGWFRGFLDALDHAGYSGLYEAIESWDFKKIEKLEEYRLLLKRLQPEFKTRIIPTDIISDLSECLINQECEEILQICSTKGMMAGAEKLVECLLRSDKENWPKTLKLALEKERNKFSELWIVEKGIKDVETEDLEDKMETSDIQIFYQEDPECQNLSENSCPPSEVSDTNLYSPFKPRNYQLELALPAMKGKNTIICAPTGCGKTFVSLLICEHHLK
no binding: all assays above
